Consider one molecule from PMC3700992.

These are yes or no findings as the source states them, for the method shown. Binding can be weak; no strength is given.

For the assay, the target named is Myeloperoxidase (human). Nature of the assay: crystal structure; Cp and Mpo pre-mixed (1:1) before crystallization; MPD Suite screen; space group P6(5)22; 4.7 Å resolution; molecular replacement, rigid body refinement; both purified.

B1: Human ceruloplasmin (protein, UniProt P00450 20-1065)
chain: KEKHYYIGIIETTWDYASDHGEKKLISVDTEHSNIYLQNGPDRIGRLYKKALYLQYTDETFRTTIEKPVWLGFLGPIIKAETGDKVYVHLKNLASRPYTFHSHGITYYKEHEGAIYPDNTTDFQRADDKVYPGEQYTYMLLATEEQSPGEGDGNCVTRIYHSHIDAPKDIASGLIGPLIICKKDSLDKEKEKHIDREFVVMFSVVDENFSWYLEDNIKTYCSEPEKVDKDNEDFQESNRMYSVNGYTFGSLPGLSMCAEDRVKWYLFGMGNEVDVHAAFFHGQALTNKNYRIDTINLFPATLFDAYMVAQNPGEWMLSCQNLNHLKAGLQAFFQVQECNKSSSKDNIRGKHVRHYYIAAEEIIWNYAPSGIDIFTKENLTAPGSDSAVFFEQGTTRIGGSYKKLVYREYTDASFTNRKERGPEEEHLGILGPVIWAEVGDTIRVTFHNKGAYPLSIEPIGVRFNKNNEGTYYSPNYNPQSRSVPPSASHVAPTETFTYEWTVPKEVGPTNADPVCLAKMYYSAVEPTKDIFTGLIGPMKICKKGSLHANGRQKDVDKEFYLFPTVFDENESLLLEDNIRMFTTAPDQVDKEDEDFQESNKMHSMNGFMYGNQPGLTMCKGDSVVWYLFSAGNEADVHGIYFSGNTYLWRGERRDTANLFPQTSLTLHMWPDTEGTFNVECLTTDHYTGGMKQKYTVNQCRRQSEDSTFYLGERTYYIAAVEVEWDYSPQREWEKELHHLQEQNVSNAFLDKGEFYIGSKYKKVVYRQYTDSTFRVPVERKAEEEHLGILGPQLHADVGDKVKIIFKNMATRPYSIHAHGVQTESSTVTPTLPGETLTYVWKIPERSGAGTEDSACIPWAYYSTVDQVKDLYSGLIGPLIVCRRPYLKVFNPRRKLEFALLFLVFDENESWYLDDNIKTYSDHPEKVNKDDEEFIESNKMHAINGRMFGNLQGLTMHVGDEVNWYLMGMGNEIDLHTVHFHGHSFQYKHRGVYSSDVFDIFPGTYQTLEMFPRTPGIWLLHCHVTDHIHAGMETTYTVLQNEDTKSG
For the molecule B1, the binding entry is “binds”.
